Assay results from PubChem BioAssay AID2685 (National Center for Advancing Translational Sciences (NCATS), 2010).
Among all 320,000 compounds or so, about 2,100 (0.66%) were called active. The shares of active, inactive and inconclusive entries below differ from those in the screen. Calls come from the whole dose curve; as a rule, active = well fitted inhibition curve with a large enough effect in the signal ratio, with a control signal flat (not every such curve was filed as active); inconclusive = small, poorly fitted or top-dose-only effect, or effect the other way, or a change in a side signal; inactive = flat fitted curve, though single readings scatter; the % refers to the signal ratio. A potency beside an inconclusive call is a rough fit, not a confirmed value. Where a SMILES comes first, the peptide text is derived from it. [ ]: non-standard residue; d: D form. The star is where a group is joined. ξ: configuration not given here. ξArg(NO2) = N=C(NCCCC(N)C(=O)O)N[N+](=O)[O-]; Bz = O=C(c1ccccc1)*

Assay: qHTS Assay for Lipid Storage Modulators in Drosophila S3 Cells
Settings: BODIPY lipid droplet fluorescence, 18-24 h, cells fed with added oleic acid; lipid storage change, negative = inhibition: at 46.1 µM (top of the series) unless noted
Outline: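 Drosophila S3 cells got compounds at several concentrations plus oleic acid (400 uM solution). Laser-scanning cytometry with 488 nm excitation read lipid droplets at 500-530 nm and cells at 575-640 nm. Percent activity was relative to 20 uM Triacsin C.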
% is set by controls: 0 for no effect and ±100 for the full control effect; potency is the fitted concentration of half-maximal effect.

SMILES | lipid storage change, negative = inhibition | Potency
OC(Cc1ccccc1)(c1ccccc1)C1CN2CCC1CC2 (stereo not drawn) | inconclusive: -4.29% | –
Cc1ccc(C)c(NC(=O)CSc2nnc([C@@H](N)Cc3c[nH]c4ccccc34)o2)c1 | – | inconclusive: 0.517 µM [activator, full curve]
CC1(C)CSC(Nc2ccc(F)c(Cl)c2)=N1 | inconclusive: 18% | –
Cc1cc2ccccn2c1C(C[N+](=O)[O-])c1c(F)cccc1Cl (stereo not drawn) | – | inconclusive: 29.1 µM [falling, partial curve, poor fit]
Cc1c(N=Nc2c(O)[nH]c(=O)[nH]c2=O)c(=O)n(-c2ccccc2)n1C | inconclusive: -7.16% | –
Cc1cc(C)c(-n2c(O)c(C=NCCN3CCOCC3)c(=O)[nH]c2=O)c(C)c1 | – | inconclusive: 29.1 µM [activator, single point]
COc1cc2c3c(c1OC)-c1cc(O)ccc1CC3NCC2 (stereo not drawn) | – | inconclusive: 3.26 µM [falling, full curve]
O=C(Oc1ccc2cc(Br)ccc2c1)N1CCCCCC1 | – | inconclusive: 0.651 µM [falling, full curve, poor fit]
C=CCn1c(O)c(/C=C2/C=CC=N2)c(=O)[nH]c1=O | – | inconclusive: 20.6 µM [falling, single point]
FC(F)(F)c1ccc2c(c1)ncn2C1CCN(Cc2nnnn2C2CCCCC2)CC1 | – | inconclusive: 0.0046 µM [activator, full curve, poor fit]
CCN1CCN(c2cc(N3CCCC3)c([N+](=O)[O-])cc2F)CC1 | inconclusive: 8.04% | –
Cc1ccc(O)c(C(=O)c2cc(C(=O)NCCC(C)C)c(=O)n(CCC(C)C)c2)c1 | inconclusive: 6.99% | –
O=c1[nH]c(=S)n(Cc2ccc(F)cc2)c(O)c1C=NCC1CCCO1 (stereo not drawn) | – | inconclusive: 3.26 µM [rising, single point]
COCCCN=Cc1c(O)[nH]c(=S)[nH]c1=O | inconclusive: -19.3% | –
CCOC(=O)c1c(C)n(Cc2ccco2)c2ccc(O)cc12 | inconclusive: 7.4% | –
O=c1[nH]c(=O)n(-c2ccc(F)cc2)c(O)c1/C=C1\C=Nc2ccccc21 | – | inconclusive: 6.51 µM [falling, full curve, poor fit]
CC12CN3CC(C)(CN(C1)C3c1cccs1)C2 (stereo not drawn) | inconclusive: -45.5% | –
Cc1ccc(C(O)(C(=O)NNC(=O)CN2CCN(C)CC2)c2ccc(C)cc2)cc1 | – | inconclusive: 0.0046 µM [falling, full curve, poor fit]
O=c1c2ccccc2nc(/C=C/c2ccc(O)c(O)c2)n1-c1ccccc1 | – | inconclusive: 32.6 µM [activator, single point]
COc1ccccc1[As](=O)(O)CC(O)COc1ccc(Cl)cc1Cl (stereo not drawn) | – | inconclusive: 7.31 µM [falling, full curve, poor fit]
O=C(NC1CN2CCC1CC2)c1cc(Cl)c([N+](=O)[O-])c2nc[nH]c12 (stereo not drawn) | inconclusive: -14.4% | –
CCCCCn1c(=O)c(C(=O)Nc2ccncc2)c(O)c2ccccc21 | inconclusive: 1.8% | –
NS(=O)(=O)c1ccc(-c2ccc(C=C3C(=O)NC(=S)NC3=O)o2)cc1 | inconclusive: -26.8% | –
CCOC(=O)c1c(/N=C/C2C(=O)NC(=S)NC2=O)sc(C)c1C | inconclusive: -11.3% | –
CCCCNC(=O)Oc1c(Br)cc2sc(=O)oc2c1Br | – | inconclusive: 0.146 µM [falling, full curve]
CC1(C)COC(Nc2ccc(Cl)cc2)=N1 | inactive: 7.18% | –

SMILES | lipid storage change, negative = inhibition | Potency
O=C(CSC1c2ccccc2-c2ccccc21)N/N=C/c1ccccc1O | inconclusive: -6.6% | –
CCC(C)NC(=O)CCC(=O)OC1O[C@H]2OC3(C)CC[C@H]4[C@H](C)CCC(C1C)C24OO3 (stereo partly drawn) | inconclusive: -9.32% | –
COc1ccc2c(CCN)c[nH]c2c1 | inconclusive: -2.28% | –
Cc1c(NP(=S)(C(C)(C)C)C(C)(C)C)c(=O)n(-c2ccccc2)n1C | inconclusive: -21.6% | –
O=C1NC(=O)C(Cc2cccs2)C(=O)N1 | – | active: 25.9 µM
CC1CC(C)CN(CC(=O)c2ccc(OC(F)F)cc2)C1 (stereo not drawn) | inconclusive: -5.61% | –
CC(Cc1ccccc1)NCCC(c1ccccc1)c1ccccc1 (stereo not drawn) | – | inconclusive: 29.1 µM [falling, single point]
N#Cc1c(Cl)nc(Cl)c2c1CCN(Cc1ccccc1)C2 | inconclusive: 23% | –
NCCc1c[nH]c2ccccc12 | inconclusive: -5.39% | –
CCC(N)Cc1c[nH]c2ccccc12 (stereo not drawn) | inconclusive: -189% | –
COCCNC(=O)c1c(N)n(Cc2ccco2)c2nc3ccccc3nc12 | inconclusive: 32.8% | –
COc1cc(/C=C2/C(=O)NC(=O)N(c3ccc(C)cc3)C2=O)cc(OC)c1OC | inconclusive: -8.67% | –
CN1CCC(c2c[nH]c3ccccc23)C1 (stereo not drawn) | inconclusive: 6.49% | –
CCc1ccccc1N1C(=O)CC(=O)NC1=O | inconclusive: -15% | –
Cc1c(C(=O)Nc2ccccc2)c2cc(O)ccc2n1Cc1ccccc1 | inconclusive: -36.8% | –
N/C(=N\[N+](=O)[O-])NCCCC(NC(=O)CNC(=O)c1ccccc1)C(=O)O (stereo not drawn) (Bz-Gly-[ξArg(NO2)]-OH) | inconclusive: -25.7% | –
C[n+]1c(-c2ccccc2)cc(-c2ccc(Cl)cc2)cc1-c1ccccc1 | inconclusive: -139% | –
CC(C)Cc1[nH]c(=O)c(C#N)c2c1CCC2 | inconclusive: 4.3% | –
CCc1ccc(OCC(=O)N2CCN(Cc3ccc4c(c3)OCO4)CC2)cc1 | inconclusive: 14.7% | –
C=CCn1c(O)c(/C=C2/C=c3ccccc3=N2)c(=O)[nH]c1=S | inconclusive: -36.1% | –
Cn1cc(C(=O)NP(=O)(N2CCOCC2)N2CCOCC2)c2ccccc21 | – | inconclusive: 1.46 µM [falling, full curve, poor fit]
COC(=O)C1=C(c2ccc(OC(F)(F)F)cc2)C[C@@H]2CC[C@H]1N2C(=O)NCCCOC(C)C | inconclusive: 5.67% | –
COc1cccc(NP(=O)(Oc2ccc(Cl)cc2)Oc2ccc(Cl)cc2)c1 | inconclusive: 24.5% | –
CN(C)c1ccc(/C=C/C=C/c2sc3ccccc3[n+]2C)cc1 | inconclusive: -87.9% | –
COc1ccc(CC2(CCc3ccncc3)C(=O)NC(=O)NC2=O)cc1 | inconclusive: 10.8% | –
CCn1ccnc1CN1CCCC(C(=O)c2cc(F)ccc2OC)C1 (stereo not drawn) | inconclusive: -31% | –

For reference, some entries already given:
SMILES | lipid storage change, negative = inhibition | Potency
CCc1ccc(OCC(=O)N2CCN(Cc3ccc4c(c3)OCO4)CC2)cc1 | inconclusive: 14.7% | –
C=CCn1c(O)c(/C=C2/C=c3ccccc3=N2)c(=O)[nH]c1=S | inconclusive: -36.1% | –
Cn1cc(C(=O)NP(=O)(N2CCOCC2)N2CCOCC2)c2ccccc21 | – | inconclusive: 1.46 µM [falling, full curve, poor fit]
COC(=O)C1=C(c2ccc(OC(F)(F)F)cc2)C[C@@H]2CC[C@H]1N2C(=O)NCCCOC(C)C | inconclusive: 5.67% | –
COc1cccc(NP(=O)(Oc2ccc(Cl)cc2)Oc2ccc(Cl)cc2)c1 | inconclusive: 24.5% | –

Additional results follow.

SMILES | lipid storage change, negative = inhibition | Potency
CC(N=Cc1c(O)[nH]c(=O)[nH]c1=O)c1ccccc1 (stereo not drawn) | inconclusive: 22.3% | –
COc1ccccc1OCC#CCN1CCCC(C)C1 (stereo not drawn) | – | inconclusive: 23.1 µM [falling, single point]
CN(C(=O)c1ccc(Cl)nc1)C1(c2ccccc2Cl)CCCCC1=O (stereo not drawn) | inconclusive: 45.3% | –
CC(C)CCn1c(=O)c(C(=O)NCc2ccco2)c(O)c2ccccc21 | inconclusive: 3.36% | –
COc1ccc(Oc2cc(NC(=O)c3nn(C)cc3[N+](=O)[O-])cc([N+](=O)[O-])c2)cc1 | inconclusive: 68.1% | –
CN1CC(C(=O)c2ccc(F)cc2)C(c2ccc(F)cc2)C1 (stereo not drawn) | inconclusive: 10.7% | –
O=C(c1cc(F)ccc1F)C1CCCN(Cc2cc(Cl)ccc2O)C1 (stereo not drawn) | inconclusive: 4.98% | –
CCOC(=O)c1c(C)n(Cc2ccco2)c2c1cc(O)c1ccccc12 | – | inconclusive: 20.6 µM [activator, partial curve]
CCOP(=O)(OCC)C(NC(=O)c1ccccc1C)C(Cl)(Cl)Cl (stereo not drawn) | inconclusive: -11.2% | –
COc1ccccc1C1C([N+](=O)[O-])=C(N)Oc2c1c(=O)oc1ccccc21 (stereo not drawn) | inconclusive: 40.5% | –
CCCNC(=O)N1[C@H]2CC[C@@H]1C(C(=O)OC)=C(c1ccc(OC)c(OC)c1)C2 | inconclusive: -8.54% | –
CN1CCc2c([nH]c3ccccc23)C1 | inactive: -12% | –
COC(=O)C1=C(c2ccc(Cl)c(C(F)(F)F)c2)C[C@@H]2CC[C@H]1N2C(=O)NCCCOC(C)C | inconclusive: 4.76% | –
Cn1c(=O)c2c(ncn2CCCl)n(C)c1=O | inconclusive: -62.7% | –
CC(C)(C)n1cc(C(=O)c2ccccc2OCCCF)cn1 | inconclusive: 3.85% | –
CC[N+](CC)(CC)CCCOC(=O)C(O)(c1ccccc1)C1CCCCC1 (stereo not drawn) | – | inconclusive: 0.517 µM [falling, full curve, poor fit]
Nc1nc(SCCC(F)=C(F)F)n[nH]1 | inconclusive: -23.8% | –
C/C(=N\N1CCCCC1)c1c(O)[nH]c(=O)[nH]c1=O | inconclusive: -31.6% | –
N#CCCn1cc(C(=O)Nc2ccccc2Cl)c(-c2ccc([N+](=O)[O-])cc2)n1 | – | inconclusive: 0.206 µM [activator, full curve, poor fit]
CCN1CCN(Cc2ccccc2C)CC1 | inconclusive: -24.3% | –
N#Cc1ccc(Cn2cc(C(=O)c3ccco3)c3ccccc32)cc1 | – | inconclusive: 29.1 µM [falling, single point]
C#C[C@@]1(O)CCC2C3CCC4=C/C(=N/OCC(=O)NC(CCC(N)=O)C(=O)O)CC[C@]4(C)C3CC[C@@]21C (stereo partly drawn) | inconclusive: -9.59% | –
CC1(C)CC(N(CCc2ccccc2)Cc2ccccc2)CCO1 (stereo not drawn) | inconclusive: -22.4% | –
O=C(Cn1cnc2ccccc2c1=O)NCCC(=O)N1CCC2(CC1)OCCO2 | inconclusive: 68.5% [activator] [at 0.0737 µM] | –
COC(=O)C1=C(c2ccc(OC(F)(F)F)cc2)C[C@@H]2CC[C@H]1N2C(=O)NC(C)C | inconclusive: 16.3% | –
Cc1cccc(-n2c(/C=C/c3ccc([N+](=O)[O-])o3)nc3ccccc3c2=O)c1 | – | active: 5.17 µM
